Test results taken from the supplement of paper PMC10849652.
This is one part of the list.

The chains behind the UniProt entries cited, without tags or fusion partners. Where a name states a change or a piece, a line headed by the entry shows the natural chain unless it says otherwise.
UniProt Q15814: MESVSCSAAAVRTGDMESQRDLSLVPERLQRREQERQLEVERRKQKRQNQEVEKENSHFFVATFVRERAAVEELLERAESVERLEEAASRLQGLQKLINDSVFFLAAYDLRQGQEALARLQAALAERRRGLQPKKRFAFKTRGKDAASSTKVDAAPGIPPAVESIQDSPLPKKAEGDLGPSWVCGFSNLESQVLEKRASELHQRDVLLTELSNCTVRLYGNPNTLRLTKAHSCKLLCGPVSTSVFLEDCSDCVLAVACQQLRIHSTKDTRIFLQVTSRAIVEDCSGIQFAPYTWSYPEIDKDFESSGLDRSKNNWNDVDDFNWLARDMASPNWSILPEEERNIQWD
UniProt O95551: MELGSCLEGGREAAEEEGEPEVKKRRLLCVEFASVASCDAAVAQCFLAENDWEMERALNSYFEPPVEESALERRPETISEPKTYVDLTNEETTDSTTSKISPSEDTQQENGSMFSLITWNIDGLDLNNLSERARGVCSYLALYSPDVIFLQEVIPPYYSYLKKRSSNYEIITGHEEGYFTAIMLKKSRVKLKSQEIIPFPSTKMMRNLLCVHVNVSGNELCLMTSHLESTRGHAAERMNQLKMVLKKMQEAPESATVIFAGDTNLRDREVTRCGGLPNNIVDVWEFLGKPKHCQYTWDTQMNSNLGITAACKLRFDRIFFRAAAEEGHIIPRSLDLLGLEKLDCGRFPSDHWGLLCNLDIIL
UniProt Q13769: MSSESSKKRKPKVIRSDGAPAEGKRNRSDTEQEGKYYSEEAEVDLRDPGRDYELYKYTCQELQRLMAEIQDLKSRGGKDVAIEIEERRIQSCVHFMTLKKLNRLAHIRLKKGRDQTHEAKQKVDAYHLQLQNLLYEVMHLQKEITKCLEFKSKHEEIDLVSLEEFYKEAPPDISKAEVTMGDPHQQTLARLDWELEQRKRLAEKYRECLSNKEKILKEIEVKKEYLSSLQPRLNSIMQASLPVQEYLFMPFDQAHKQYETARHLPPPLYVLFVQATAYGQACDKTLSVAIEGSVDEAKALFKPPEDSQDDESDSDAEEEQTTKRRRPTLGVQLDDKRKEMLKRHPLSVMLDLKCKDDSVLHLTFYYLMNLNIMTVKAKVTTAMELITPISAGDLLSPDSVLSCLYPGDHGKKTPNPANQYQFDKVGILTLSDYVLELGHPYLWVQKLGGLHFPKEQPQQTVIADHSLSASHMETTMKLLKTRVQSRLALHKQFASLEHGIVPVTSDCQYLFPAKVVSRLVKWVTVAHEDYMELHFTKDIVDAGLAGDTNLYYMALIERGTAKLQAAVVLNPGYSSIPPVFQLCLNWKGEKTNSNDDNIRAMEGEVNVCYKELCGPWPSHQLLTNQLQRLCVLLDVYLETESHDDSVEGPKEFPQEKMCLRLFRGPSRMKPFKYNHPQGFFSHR
UniProt Q99595: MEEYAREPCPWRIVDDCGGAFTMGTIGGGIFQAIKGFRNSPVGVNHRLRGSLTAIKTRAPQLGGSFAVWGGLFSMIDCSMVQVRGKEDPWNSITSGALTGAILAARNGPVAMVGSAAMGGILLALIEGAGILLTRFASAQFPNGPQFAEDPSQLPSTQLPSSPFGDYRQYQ
UniProt P07996: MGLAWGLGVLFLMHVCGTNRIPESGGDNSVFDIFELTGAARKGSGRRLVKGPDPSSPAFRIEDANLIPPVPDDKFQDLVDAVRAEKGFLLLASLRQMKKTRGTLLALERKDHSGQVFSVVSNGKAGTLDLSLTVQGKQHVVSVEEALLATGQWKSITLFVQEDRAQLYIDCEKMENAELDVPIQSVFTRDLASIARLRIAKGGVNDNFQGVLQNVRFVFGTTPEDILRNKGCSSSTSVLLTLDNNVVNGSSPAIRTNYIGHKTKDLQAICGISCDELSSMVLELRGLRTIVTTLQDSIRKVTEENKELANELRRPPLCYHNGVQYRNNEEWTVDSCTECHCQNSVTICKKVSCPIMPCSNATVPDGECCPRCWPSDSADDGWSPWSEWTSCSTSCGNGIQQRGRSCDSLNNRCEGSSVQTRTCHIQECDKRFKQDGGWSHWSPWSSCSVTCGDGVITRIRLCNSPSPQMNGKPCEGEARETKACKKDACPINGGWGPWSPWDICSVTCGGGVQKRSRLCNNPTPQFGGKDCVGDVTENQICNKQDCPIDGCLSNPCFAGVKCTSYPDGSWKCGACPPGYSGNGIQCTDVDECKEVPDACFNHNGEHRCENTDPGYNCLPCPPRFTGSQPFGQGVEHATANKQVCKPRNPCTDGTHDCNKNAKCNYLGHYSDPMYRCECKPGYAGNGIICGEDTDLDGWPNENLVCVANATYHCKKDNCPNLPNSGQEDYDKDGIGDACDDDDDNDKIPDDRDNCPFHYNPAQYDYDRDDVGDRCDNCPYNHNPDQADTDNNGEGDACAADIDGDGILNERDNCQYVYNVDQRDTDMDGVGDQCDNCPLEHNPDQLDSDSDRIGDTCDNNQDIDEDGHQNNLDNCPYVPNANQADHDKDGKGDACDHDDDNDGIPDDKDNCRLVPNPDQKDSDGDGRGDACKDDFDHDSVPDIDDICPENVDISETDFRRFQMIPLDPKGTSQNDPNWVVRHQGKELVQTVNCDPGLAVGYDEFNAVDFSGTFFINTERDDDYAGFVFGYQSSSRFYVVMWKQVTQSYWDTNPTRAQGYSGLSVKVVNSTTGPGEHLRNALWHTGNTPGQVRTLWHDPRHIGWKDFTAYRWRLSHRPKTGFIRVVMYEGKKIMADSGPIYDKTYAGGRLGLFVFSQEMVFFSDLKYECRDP
UniProt Q96CP7: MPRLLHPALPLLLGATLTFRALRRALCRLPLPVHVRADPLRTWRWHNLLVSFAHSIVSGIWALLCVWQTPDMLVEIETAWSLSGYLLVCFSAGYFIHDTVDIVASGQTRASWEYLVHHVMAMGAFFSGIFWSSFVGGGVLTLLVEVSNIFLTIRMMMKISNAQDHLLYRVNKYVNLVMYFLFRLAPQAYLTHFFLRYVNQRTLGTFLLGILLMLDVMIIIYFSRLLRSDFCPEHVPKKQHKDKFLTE
UniProt Q12788: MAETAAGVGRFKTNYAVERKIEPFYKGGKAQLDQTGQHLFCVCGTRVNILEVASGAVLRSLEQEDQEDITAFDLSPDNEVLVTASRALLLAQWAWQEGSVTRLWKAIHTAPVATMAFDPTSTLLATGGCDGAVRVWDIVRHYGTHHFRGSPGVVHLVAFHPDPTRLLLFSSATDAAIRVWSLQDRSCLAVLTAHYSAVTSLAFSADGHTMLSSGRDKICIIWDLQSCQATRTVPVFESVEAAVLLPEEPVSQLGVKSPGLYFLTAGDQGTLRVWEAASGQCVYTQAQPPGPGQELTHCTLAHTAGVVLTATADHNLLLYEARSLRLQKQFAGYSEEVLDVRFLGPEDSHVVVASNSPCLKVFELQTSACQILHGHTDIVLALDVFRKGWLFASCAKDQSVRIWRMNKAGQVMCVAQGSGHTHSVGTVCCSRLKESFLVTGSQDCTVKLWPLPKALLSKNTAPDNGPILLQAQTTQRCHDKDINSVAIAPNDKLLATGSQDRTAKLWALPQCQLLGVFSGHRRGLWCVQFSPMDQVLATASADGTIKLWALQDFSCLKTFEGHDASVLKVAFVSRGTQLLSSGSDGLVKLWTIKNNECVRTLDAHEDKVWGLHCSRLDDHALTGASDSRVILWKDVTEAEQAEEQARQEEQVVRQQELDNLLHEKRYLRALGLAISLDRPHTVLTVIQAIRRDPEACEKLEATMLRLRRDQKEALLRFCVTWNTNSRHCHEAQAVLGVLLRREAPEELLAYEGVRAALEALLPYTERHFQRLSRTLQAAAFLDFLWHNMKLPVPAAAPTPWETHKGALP
UniProt Q96MV1: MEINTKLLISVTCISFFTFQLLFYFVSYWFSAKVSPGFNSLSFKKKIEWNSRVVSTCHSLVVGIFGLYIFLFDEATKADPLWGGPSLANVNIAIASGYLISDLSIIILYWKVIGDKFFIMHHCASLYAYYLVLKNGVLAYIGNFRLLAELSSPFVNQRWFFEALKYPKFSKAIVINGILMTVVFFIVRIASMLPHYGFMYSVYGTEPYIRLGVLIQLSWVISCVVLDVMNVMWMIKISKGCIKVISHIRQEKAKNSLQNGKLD
UniProt Q9BVW5: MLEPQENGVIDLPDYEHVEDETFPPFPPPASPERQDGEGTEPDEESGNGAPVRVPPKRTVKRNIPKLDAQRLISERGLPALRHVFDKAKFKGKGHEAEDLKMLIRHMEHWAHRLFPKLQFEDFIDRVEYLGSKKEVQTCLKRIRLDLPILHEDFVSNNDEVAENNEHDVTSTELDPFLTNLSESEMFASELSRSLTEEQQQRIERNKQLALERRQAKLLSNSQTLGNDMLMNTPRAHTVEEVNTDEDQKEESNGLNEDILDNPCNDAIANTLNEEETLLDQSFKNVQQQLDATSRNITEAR
UniProt O14925: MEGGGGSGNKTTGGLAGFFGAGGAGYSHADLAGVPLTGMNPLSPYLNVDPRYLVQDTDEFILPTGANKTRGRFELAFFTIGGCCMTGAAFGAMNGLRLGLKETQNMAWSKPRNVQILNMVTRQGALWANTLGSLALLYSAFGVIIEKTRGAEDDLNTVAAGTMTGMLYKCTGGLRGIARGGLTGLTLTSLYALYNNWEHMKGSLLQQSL
UniProt Q9NXG2: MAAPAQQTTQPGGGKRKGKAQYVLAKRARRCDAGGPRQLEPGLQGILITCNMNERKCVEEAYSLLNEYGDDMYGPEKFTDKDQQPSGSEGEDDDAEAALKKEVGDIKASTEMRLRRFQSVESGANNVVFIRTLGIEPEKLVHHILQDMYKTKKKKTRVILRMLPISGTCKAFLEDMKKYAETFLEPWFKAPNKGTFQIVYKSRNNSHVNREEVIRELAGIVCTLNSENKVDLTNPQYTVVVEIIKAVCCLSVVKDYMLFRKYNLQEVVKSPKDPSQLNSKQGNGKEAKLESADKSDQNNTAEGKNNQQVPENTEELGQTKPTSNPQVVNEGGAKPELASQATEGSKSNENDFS
UniProt Q15813: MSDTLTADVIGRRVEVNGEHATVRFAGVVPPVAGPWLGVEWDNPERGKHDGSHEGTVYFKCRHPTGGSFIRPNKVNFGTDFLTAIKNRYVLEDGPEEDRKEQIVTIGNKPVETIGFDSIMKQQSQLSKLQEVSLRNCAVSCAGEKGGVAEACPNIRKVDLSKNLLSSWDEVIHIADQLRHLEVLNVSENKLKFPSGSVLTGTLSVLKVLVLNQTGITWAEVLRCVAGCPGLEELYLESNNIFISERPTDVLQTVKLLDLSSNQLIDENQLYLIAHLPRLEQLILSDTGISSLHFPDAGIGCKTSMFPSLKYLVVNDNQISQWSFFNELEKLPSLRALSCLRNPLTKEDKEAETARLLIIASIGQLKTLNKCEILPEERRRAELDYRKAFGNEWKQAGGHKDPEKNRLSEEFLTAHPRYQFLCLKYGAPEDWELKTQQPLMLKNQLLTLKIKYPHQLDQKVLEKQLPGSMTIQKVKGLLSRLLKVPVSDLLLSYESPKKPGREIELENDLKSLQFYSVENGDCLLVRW
UniProt Q3LXA3: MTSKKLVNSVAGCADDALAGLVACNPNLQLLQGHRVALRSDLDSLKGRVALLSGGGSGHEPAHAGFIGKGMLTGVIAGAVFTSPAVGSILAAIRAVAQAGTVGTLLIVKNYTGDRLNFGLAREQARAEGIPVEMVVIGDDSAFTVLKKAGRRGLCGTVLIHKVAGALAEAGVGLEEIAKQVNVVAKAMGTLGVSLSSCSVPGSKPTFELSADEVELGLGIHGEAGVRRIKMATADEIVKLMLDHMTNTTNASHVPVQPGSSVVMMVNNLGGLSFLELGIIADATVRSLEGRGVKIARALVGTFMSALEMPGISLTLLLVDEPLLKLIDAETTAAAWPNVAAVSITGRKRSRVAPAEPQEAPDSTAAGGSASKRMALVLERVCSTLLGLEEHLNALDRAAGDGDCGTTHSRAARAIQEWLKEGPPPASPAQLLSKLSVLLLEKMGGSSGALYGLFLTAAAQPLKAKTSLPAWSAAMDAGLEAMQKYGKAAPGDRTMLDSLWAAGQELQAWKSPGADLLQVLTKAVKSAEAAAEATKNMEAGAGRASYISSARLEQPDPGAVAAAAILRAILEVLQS
UniProt Q9Y5J7: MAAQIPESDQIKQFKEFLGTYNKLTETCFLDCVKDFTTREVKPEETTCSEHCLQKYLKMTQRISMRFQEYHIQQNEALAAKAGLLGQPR
UniProt O43493: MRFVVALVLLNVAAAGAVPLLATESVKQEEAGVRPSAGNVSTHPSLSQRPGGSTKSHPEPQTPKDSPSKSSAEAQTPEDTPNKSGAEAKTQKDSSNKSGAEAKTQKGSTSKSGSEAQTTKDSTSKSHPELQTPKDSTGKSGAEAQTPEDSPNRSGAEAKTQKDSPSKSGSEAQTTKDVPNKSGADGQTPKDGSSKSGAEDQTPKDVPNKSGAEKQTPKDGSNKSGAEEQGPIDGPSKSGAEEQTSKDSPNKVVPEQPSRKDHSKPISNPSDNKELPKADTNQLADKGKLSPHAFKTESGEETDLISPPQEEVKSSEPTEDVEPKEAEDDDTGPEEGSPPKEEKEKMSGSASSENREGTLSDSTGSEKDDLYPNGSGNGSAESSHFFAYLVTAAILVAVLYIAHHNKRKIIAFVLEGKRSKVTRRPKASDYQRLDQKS

What was measured:
Test in all cases: log2 fold change, soluble protein after heating vs DMSO (PISA); higher = thermal stabilisation; K562 cells, 10 uM, 30 min; active = over 0.2 and 3.5 SD of the protein, either way, in both replicates (recomputed)
[1] = compound: COC1=CC=C(C=C1)CN2C=CC3=C2C=C(C=C3)C(=O)NO
Procedure, shortened: (§1)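 Aliquots of K562 cells (2×10^6 cells/mL) treated with 10 μM compound for 30 min were heated for 3 min over 48°C-58°C. After pooling and extraction in PBS with 0.5% NP-40 at 4°C, soluble protein from a 21,000xg, 90 min spin was quantified by TMTpro 16plex LC-MS/MS with channel sums equalised. Thermal stability is expressed against control samples, from duplicates, as a log2 fold change.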

filanesib = compound: CON(C)C(=O)N1N=C(c2cc(F)ccc2F)S[C@@]1(CCCN)c1ccccc1 [filanesib]
Procedure, shortened: as §1

zotarolimus = compound: CO[C@H]1C[C@@H]2CC[C@@H](C)[C@@](O)(O2)C(=O)C(=O)N2CCCC[C@H]2C(=O)O[C@H]([C@H](C)C[C@@H]2CC[C@H](n3cnnn3)[C@H](OC)C2)CC(=O)[C@H](C)/C=C(\C)[C@@H](O)[C@@H](OC)C(=O)[C@H](C)C[C@H](C)/C=C/C=C/C=C/1C [zotarolimus]
Procedure, shortened: as §1

idasanutlin = compound: COc1cc(C(=O)O)ccc1NC(=O)[C@@H]1N[C@@H](CC(C)(C)C)[C@](C#N)(c2ccc(Cl)cc2F)[C@H]1c1cccc(Cl)c1F [idasanutlin]
Procedure, shortened: as §1

alisertib = compound: COc1cc(Nc2ncc3c(n2)-c2ccc(Cl)cc2C(c2c(F)cccc2OC)=NC3)ccc1C(=O)O [alisertib]
Procedure, shortened: as §1

[2] = compound: COc1cc2nc(-c3cc(F)ccc3O)nc(N[C@@H]3CNC[C@H]3C(C)(C)O)c2cc1OC
Procedure, shortened: as §1

gefitinib = compound: COc1cc2ncnc(Nc3ccc(F)c(Cl)c3)c2cc1OCCCN1CCOCC1 [gefitinib]
Procedure, shortened: as §1

[3] = compound: COc1cccc2cc(-c3nc([C@H]4CC[C@H](C(=O)O)CC4)n4ncnc(N)c34)[nH]c12
Procedure, shortened: as §1

lapatinib = compound: CS(=O)(=O)CCNCc1ccc(-c2ccc3ncnc(Nc4ccc(OCc5cccc(F)c5)c(Cl)c4)c3c2)o1 [lapatinib]
Procedure, shortened: as §1

pictilisib = compound: CS(=O)(=O)N1CCN(Cc2cc3nc(-c4cccc5[nH]ncc45)nc(N4CCOCC4)c3s2)CC1 [pictilisib]
Procedure, shortened: as §1

[4] = compound: CS(=O)(=O)c1ccc(-c2cnc(N)c(C(=O)Nc3ccccc3)n2)cc1
Procedure, shortened: as §1

crizotinib = compound: C[C@@H](Oc1cc(-c2cnn(C3CCNCC3)c2)cnc1N)c1c(Cl)ccc(F)c1Cl [crizotinib]
Procedure, shortened: as §1

[5] = compound: C[C@@H]1COCCN1C2=NC(=NC(=C2)C3(CC3)S(=O)(=O)C)C4=C5C=CNC5=CC=C4
Procedure, shortened: as §1

[6] = compound: C[C@H](C1=CC=C(C=C1)C(=O)NC2=C3C=CNC3=NC=C2)N
Procedure, shortened: as §1

duvelisib = compound: C[C@H](Nc1ncnc2nc[nH]c12)c1cc2cccc(Cl)c2c(=O)n1-c1ccccc1 [duvelisib]
Procedure, shortened: as §1

gandotinib = compound: Cc1cc(Nc2cc(CN3CCOCC3)c3nc(C)c(Cc4ccc(Cl)cc4F)n3n2)n[nH]1 [gandotinib]
Procedure, shortened: as §1

tozasertib = compound: Cc1cc(Nc2cc(N3CCN(C)CC3)nc(Sc3ccc(NC(=O)C4CC4)cc3)n2)n[nH]1 [tozasertib]
Procedure, shortened: as §1

[7] = compound: Cc1cc(SCc2sc(-c3ccc(C(F)(F)F)cc3)nc2C)ccc1OCC(=O)O
Procedure, shortened: as §1

doramapimod = compound: Cc1ccc(-n2nc(C(C)(C)C)cc2NC(=O)Nc2ccc(OCCN3CCOCC3)c3ccccc23)cc1 [doramapimod]
Procedure, shortened: as §1

ispinesib = compound: Cc1ccc(C(=O)N(CCCN)[C@@H](c2nc3cc(Cl)ccc3c(=O)n2Cc2ccccc2)C(C)C)cc1 [ispinesib]
Procedure, shortened: as §1

Measured: log2 fold change

TBCC (UniProt Q15814)
inactive: [1] -0.008 | filanesib -0.049 | zotarolimus 0.022 | idasanutlin -0.061 | alisertib 0.004 | [2] -0.007 | gefitinib -0.009 | [3] 0.002 | lapatinib 0.014 | pictilisib 0.021 | [4] -0.018 | crizotinib 0.001 | [5] 0.04 | [6] -0.064 | duvelisib 0.06 | gandotinib -0.071 | tozasertib 0.037 | [7] 0.007 | doramapimod -0.039 | ispinesib 0.045

TDP2 isoform 2 (UniProt O95551)
inactive: [1] -0.008 | filanesib -0.096 | zotarolimus 0 | idasanutlin -0.004 | alisertib -0.051 | [2] 0.023 | gefitinib 0.073 | [3] 0.083 | lapatinib 0.03 | pictilisib 0.001 | [4] 0.001 | crizotinib -0.077 | [5] -0.078 | [6] 0.003 | duvelisib 0.021 | gandotinib -0.03 | tozasertib -0.097 | [7] 0.072 | doramapimod 0.018 | ispinesib -0.118

THOC5 (UniProt Q13769)
inactive: [1] -0.055 | filanesib 0.062 | zotarolimus 0.004 | idasanutlin 0.06 | alisertib -0.089 | [2] 0.028 | gefitinib 0.002 | [3] 0.01 | lapatinib -0.037 | pictilisib 0.002 | [4] 0.008 | crizotinib 0.069 | [5] 0.075 | [6] -0.014 | duvelisib -0.036 | gandotinib 0.037 | tozasertib 0.003 | [7] -0.027 | doramapimod 0.024 | ispinesib 0.031

2 successive records from above, quoted:
TDP2 isoform 2 (UniProt O95551)
inactive: [1] -0.008 | filanesib -0.096 | zotarolimus 0 | idasanutlin -0.004 | alisertib -0.051 | [2] 0.023 | gefitinib 0.073 | [3] 0.083 | lapatinib 0.03 | pictilisib 0.001 | [4] 0.001 | crizotinib -0.077 | [5] -0.078 | [6] 0.003 | duvelisib 0.021 | gandotinib -0.03 | tozasertib -0.097 | [7] 0.072 | doramapimod 0.018 | ispinesib -0.118

THOC5 (UniProt Q13769)
inactive: [1] -0.055 | filanesib 0.062 | zotarolimus 0.004 | idasanutlin 0.06 | alisertib -0.089 | [2] 0.028 | gefitinib 0.002 | [3] 0.01 | lapatinib -0.037 | pictilisib 0.002 | [4] 0.008 | crizotinib 0.069 | [5] 0.075 | [6] -0.014 | duvelisib -0.036 | gandotinib 0.037 | tozasertib 0.003 | [7] -0.027 | doramapimod 0.024 | ispinesib 0.031

Continued:

TIMM17A (UniProt Q99595)
inactive: [1] 0.016 | filanesib -0.021 | zotarolimus -0.008 | idasanutlin 0.014 | alisertib -0.008 | [2] 0.006 | gefitinib -0.001 | [3] 0.06 | lapatinib -0.016 | pictilisib 0.011 | [4] 0.009 | crizotinib 0.026 | [5] -0.011 | [6] -0.084 | duvelisib 0.017 | gandotinib 0.075 | tozasertib -0.01 | [7] -0.067 | doramapimod -0.009 | ispinesib 0.012

THBS1 (UniProt P07996)
inactive: [1] 0.038 | filanesib 0.072 | zotarolimus -0.182 | idasanutlin 0.151 | alisertib -0.017 | [2] -0.074 | gefitinib -0.065 | [3] 0.27 | lapatinib -0.02 | pictilisib -0.106 | [4] -0.069 | crizotinib -0.024 | [5] -0.072 | [6] 0.079 | duvelisib -0.107 | gandotinib -0.1 | tozasertib -0.032 | [7] -0.117 | doramapimod -0.04 | ispinesib -0.121

TLCD1 (UniProt Q96CP7)
inactive: [1] -0.067 | filanesib -0.173 | zotarolimus 0.014 | idasanutlin -0.034 | alisertib -0.052 | [2] 0.058 | gefitinib 0.036 | [3] 0.031 | lapatinib 0.061 | pictilisib 0.023 | [4] 0.014 | crizotinib 0.005 | [5] -0.073 | [6] -0.002 | duvelisib -0.024 | gandotinib 0.054 | tozasertib -0.082 | [7] -0.297 | doramapimod 0.031 | ispinesib -0.211

TBL3 (UniProt Q12788)
inactive: [1] 0.009 | filanesib 0.209 | zotarolimus 0.044 | idasanutlin 0.118 | alisertib -0.037 | [2] 0.035 | gefitinib 0.067 | [3] -0.025 | lapatinib 0.06 | pictilisib -0.006 | [4] 0 | crizotinib -0.053 | [5] -0.038 | [6] 0.134 | duvelisib -0.045 | gandotinib 0.018 | tozasertib 0.004 | [7] -0.006 | doramapimod 0.108 | ispinesib -0.052

TLCD4 (UniProt Q96MV1)
inactive: [1] 0.115 | filanesib -0.019 | zotarolimus -0.033 | idasanutlin -0.082 | alisertib -0.12 | [2] -0.138 | gefitinib -0.022 | [3] 0.047 | lapatinib 0.053 | pictilisib -0.182 | [4] 0.01 | crizotinib -0.009 | [5] -0.043 | [6] -0.098 | duvelisib 0.005 | gandotinib 0.12 | tozasertib 0.028 | [7] 0.034 | doramapimod 0.051 | ispinesib 0.075

TIPIN (UniProt Q9BVW5)
inactive: [1] 0 | filanesib 0.068 | zotarolimus 0.016 | idasanutlin 0 | alisertib -0.008 | [2] 0.15 | gefitinib -0.014 | [3] 0.029 | lapatinib -0.078 | pictilisib -0.04 | [4] -0.026 | crizotinib 0.114 | [5] 0.048 | [6] 0.008 | duvelisib 0.039 | gandotinib 0.03 | tozasertib 0.038 | [7] 0.057 | doramapimod -0.028

TIMM23 (UniProt O14925)
inactive: [1] 0.137 | filanesib -0.03 | zotarolimus -0.025 | idasanutlin -0.074 | alisertib -0.076 | [2] -0.229 | gefitinib 0.031 | [3] 0.044 | lapatinib 0.077 | pictilisib 0.001 | [4] 0 | crizotinib 0 | [5] -0.003 | [6] -0.044 | duvelisib -0.045 | gandotinib -0.076 | tozasertib -0.002 | [7] -0.052 | doramapimod -0.025 | ispinesib 0.086

THUMPD1 (UniProt Q9NXG2)
inactive: [1] 0.031 | filanesib 0.009 | zotarolimus 0.017 | idasanutlin -0.051 | alisertib -0.05 | [2] 0.014 | gefitinib 0.005 | [3] 0.016 | lapatinib -0.011 | pictilisib 0.046 | [4] -0.019 | crizotinib 0.036 | [5] 0.054 | [6] -0.051 | duvelisib 0.035 | gandotinib -0.02 | tozasertib -0.014 | [7] -0.016 | doramapimod -0.084 | ispinesib 0.077

TBCE (UniProt Q15813)
inactive: [1] 0.044 | filanesib 0.075 | zotarolimus 0.057 | idasanutlin 0.085 | alisertib -0.053 | [2] 0.014 | gefitinib 0.071 | [3] -0.106 | lapatinib 0.005 | pictilisib 0.007 | [4] -0.031 | crizotinib -0.153 | [5] -0.047 | [6] 0.241 | duvelisib -0.041 | gandotinib 0.073 | tozasertib 0.064 | [7] 0.122 | doramapimod 0.096 | ispinesib -0.178

TKFC (UniProt Q3LXA3)
inactive: [1] -0.001 | filanesib -0.022 | zotarolimus -0.048 | idasanutlin -0.068 | alisertib -0.037 | [2] 0.073 | gefitinib -0.005 | [3] 0.069 | lapatinib -0.042 | pictilisib 0.031 | [4] 0.018 | crizotinib 0.013 | [5] 0.036 | [6] -0.012 | duvelisib 0.032 | gandotinib -0.05 | tozasertib -0.015 | [7] -0.04 | doramapimod -0.003 | ispinesib 0.022

TIMM9 (UniProt Q9Y5J7)
inactive: [1] 0.051 | filanesib -0.231 | zotarolimus 0.014 | idasanutlin -0.006 | alisertib -0.077 | [2] -0.089 | gefitinib 0.042 | [3] 0.063 | lapatinib -0.07 | pictilisib 0.097 | [4] -0.066 | crizotinib 0.309 | [5] 0.182 | [6] -0.222 | duvelisib 0.108 | gandotinib 0.045 | tozasertib 0.074 | [7] 0.024 | doramapimod 0.029 | ispinesib 0.215

TGOLN2 isoform 7 (UniProt O43493)
inactive: [1] 0 | filanesib -0.174 | zotarolimus -0.017 | idasanutlin 0.031 | alisertib -0.04 | [2] -0.043 | gefitinib 0.054 | [3] 0.073 | lapatinib -0.017 | pictilisib -0.006 | [4] -0.018 | crizotinib 0.012 | [5] 0.028 | [6] -0.071 | duvelisib -0.008 | gandotinib 0.098 | tozasertib -0.052 | [7] -0.101 | doramapimod 0.072 | ispinesib -0.033
